Test system: PARylation
Assay: Dual luciferase assay with PAR-T NanoLuc in MDA-MB-231-Luc cells, cell number titration
Type: cell-based, human

B1: PAR-T NanoLuc: WWE-based split Nano Luciferase fusion protein pair, C-terminal fragment fused to LSSmOrange (SEQ ID NO: 15 and 16) (protein)
chain 1: MDYKDDDDKLEATGNGEYAWYYEGRNGWWQYDERTSRELEDAFSKGKKNTEMLIAGFLYVADLENMVQYRRNEHGRRRKIKRDIIDIPKKGVAGLRLEFSTGHGTGSTGSGSSGTASSESTGSSVFTLEDFVGDWEQTAAYNLDQVLEQGGVSSLLQNLAVSVTPIQRIVRSGENALKIDIHVIIPYEGLSADQMAQIEEVFKVVYPVDDHHFKVILPYGTLVIDGVTPNMLNYFGRPYEGIAVFDGKKITVTGTLWNGNKIIDERLITPDGSMLFRVTINS
chain 2: MDYKDDDDKLEATGNGEYAWYYEGRNGWWQYDERTSRELEDAFSKGKKNTEMLIAGFLYVADLENMVQYRRNEHGRRRKIKRDIIDIPKKGVAGLRLEFSTGHGTGSTGSGSSGTASSESTGSSVTGYRLFEEILDISGGMVSKGEENNMAIIKEFMRFKVRMEGSVNGHEFEIEGEGEGRPYEGFQTVKLKVTKGGPLPFAWDILSPQFTYGSKAYVKHPADIPDYLKLSFPEGFKWERVMNFEDGGVVTVTQDSSLQDGEFIYKVKLRGTNFPSDGPVMQKKTMGMEASSERMYPEDGALKGEDKLRLKLKDGGHYTSEVKTTYKAKKPVQLPGAYIVDIKLDITSHNEDYTIVEQYERAEGRHSTGGMDELYK
1000 cells
  dynamic range: approximately two-fold
MDA-MB-231-Luc cells
  number of cells in which PARylation can be detected: 1000 cells
